These are yes or no findings as the source states them, for the method shown. Binding seen in cells or lysates may run through a third protein. These calls come from enrichment with a bait or labelling near it, and not all partners need be listed. One block for each binder: values may come before it.
Tests used:
NIX(1–182aa)-GST (human) = NIX(1–182aa)-GST (human) (UniProt O60238); experiment: affinity purification with mass spectrometry; GSH beads coated with NIX(1-182)-GST, BNIP3(1-158)-GST or GST, incubated overnight with HeLa cell lysate (100 mM KCl, 2.5 mM MgCl2, 20 mM Tris-HCl pH 7.4, 0.5% NP-40); label-free quantitative mass spectrometry; only the target purified
[1] = molecular target: BNIP3(1–158aa)-GST (human); experiment: as above

By UniProt entry, the sequences of proteins in these tests, tags left out. Residues count along the entry.
UniProt O60238, residues 1-182: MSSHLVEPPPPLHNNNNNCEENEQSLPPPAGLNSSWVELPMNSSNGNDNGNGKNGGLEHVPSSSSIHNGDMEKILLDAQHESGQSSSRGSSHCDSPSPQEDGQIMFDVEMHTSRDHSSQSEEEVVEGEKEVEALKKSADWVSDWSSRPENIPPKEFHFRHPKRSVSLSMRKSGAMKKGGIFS

binding (NIX(1–182aa)-GST (human)): binds
B1: WIPI2 (endogenous, HeLa) (protein, UniProt Q9Y4P8 1-454)
chain: MNLASQSGEAGAGQLLFANFNQDNTEVKGASRAAGLGRRAVVWSLAVGSKSGYKFFSLSSVDKLEQIYECTDTEDVCIVERLFSSSLVAIVSLKAPRKLKVCHFKKGTEICNYSYSNTILAVKLNRQRLIVCLEESLYIHNIRDMKVLHTIRETPPNPAGLCALSINNDNCYLAYPGSATIGEVQVFDTINLRAANMIPAHDSPLAALAFDASGTKLATASEKGTVIRVFSIPEGQKLFEFRRGVKRCVSICSLAFSMDGMFLSASSNTETVHIFKLETVKEKPPEEPTTWTGYFGKVLMASTSYLPSQVTEMFNQGRAFATVRLPFCGHKNICSLATIQKIPRLLVGAADGYLYMYNLDPQEGGECALMKQHRLDGSLETTNEILDSASHDCPLVTQTYGAAAGKGTYVPSSPTRLAYTDDLGAVGGACLEDEASALRLDEDSEHPPMILRTD

binding [1]: binds
binding (NIX(1–182aa)-GST (human)): binds
B2: PPTC7 (endogenous, HeLa) (protein, UniProt Q8NI37 69-304)
chain: RSADVLGVADGVGGWRDYGVDPSQFSGTLMRTCERLVKEGRFVPSNPIGILTTSYCELLQNKVPLLGSSTACIVVLDRTSHRLHTANLGDSGFLVVRGGEVVHRSDEQQHYFNTPFQLSIAPPEAEGVVLSDSPDAADSTSFDVQLGDIILTATDGLFDNMPDYMILQELKKLKNSNYESIQQTARSIAEQAHELAYDPNYMSPFAQFACDNGLNVRGGKPDDITVLLSIVAEYTD

Reference: paper doi:10.1101/2024.08.28.609967 (bioRxiv, 2024)
